What was measured:
HEK293 cells = test: Cytotoxicity MTS assay; assay type: cell-based, human; conditions: IC50 HEK293 / MIC S. aureus ATCC 25923
Procedure: (§1) The cytotoxic potential of the selected drug candidates was evaluated using the CellTiter 96® AQueous One Solution Cell Proliferation Assay (Promega, Madison, WI, USA), following the manufacturer’s protocol. Human cell lines RPE1 and HEK293 were cultured at 37 °C in a humidified incubator with 5% CO2. Test compounds were dissolved in the appropriate growth medium and serially diluted across a range of concentrations in 96-well microtiter plates. Each well was seeded with 5000 cells and incubated for 48 h under standard culture conditions. Following this incubation period, 20 µL of MTS reagent was added to each well, and the plates were further incubated for 3 h to allow for color development. Absorbance was measured at 490 nm using a microplate reader to determine cell viability. Cytotoxicity was quantified as the half-maximal inhibitory concentration (IC50), defined as the concentration of compound that reduced cell viability by 50%. […] IC50 values were calculated using GraFit 6.0 software by plotting compound concentration against absorbance and fitting the data to a sigmoidal dose–response curve.

RPE1 cells = test: Cytotoxicity MTS assay; assay type: cell-based, human; conditions: IC50 RPE1 / MIC S. aureus ATCC 25923
Procedure: as §1

SMILES | SI (IC50/MIC) HEK293 (HEK293 cells) | SI (IC50/MIC) RPE1 (RPE1 cells)
CCCCCCCCCCCCCCNC1C[N+]2(CCCCCC[N+]34CCC(CC3)C(NCCCCCCCCCCCCCC)C4)CCC1CC2 (racemic) [2(QC14)6, (±)-1,1′-(Hexane-1,6-diyl) bis(3-(tetradecylamino)quinuclidinium) dibromide] | 1.11 | 1.61
CCCCCCCCCCCCCCCCNC1C[N+]2(CCC[N+]34CCC(CC3)C(NCCCCCCCCCCCCCCCC)C4)CCC1CC2 (racemic) [2(QC16)3, (±)-1,1′-(Propane-1,3-diyl) bis(3-(hexadecylamino)quinuclidinium) dibromide] | 0.55 | 1.82
CCCCCCCCCCCCCCCCNC1C[N+]2(CCCC[N+]34CCC(CC3)C(NCCCCCCCCCCCCCCCC)C4)CCC1CC2 (racemic) [2(QC16)4, (±)-1,1′-(Butane-1,4-diyl) bis(3-(hexadecylamino)quinuclidinium) dibromide] | 0.33 | 0.45
CCCCCCCCCCCCCCCCNC1C[N+]2(CCCCCC[N+]34CCC(CC3)C(NCCCCCCCCCCCCCCCC)C4)CCC1CC2 (racemic) [2(QC16)6, (±)-1,1′-(Hexane-1,6-diyl) bis(3-(hexadecylamino)quinuclidinium) dibromide] | 0.78 | 0.56
